Test results as given in publication PMC4696240.
No constants are given. Whether binding was seen depends on the method and setting. Some results given as binding are weak or reduced against the parent protein; the word gives no strength.

The chains behind the UniProt entries cited, without tags or fusion partners.
UniProt P27318: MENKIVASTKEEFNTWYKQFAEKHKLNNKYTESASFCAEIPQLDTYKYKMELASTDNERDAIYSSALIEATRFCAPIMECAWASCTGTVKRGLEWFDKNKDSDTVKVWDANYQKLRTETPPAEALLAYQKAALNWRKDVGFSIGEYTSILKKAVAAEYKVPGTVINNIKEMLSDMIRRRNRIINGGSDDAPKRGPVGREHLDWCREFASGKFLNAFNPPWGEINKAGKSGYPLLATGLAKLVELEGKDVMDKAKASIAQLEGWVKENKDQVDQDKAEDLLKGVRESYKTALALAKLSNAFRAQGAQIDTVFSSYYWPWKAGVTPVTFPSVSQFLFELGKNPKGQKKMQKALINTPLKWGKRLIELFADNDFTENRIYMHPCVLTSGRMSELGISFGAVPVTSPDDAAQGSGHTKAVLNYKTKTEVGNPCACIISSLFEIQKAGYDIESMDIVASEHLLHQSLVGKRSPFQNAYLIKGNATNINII

Biological target: Hazara virus nucleocapsid protein (HAZV N), strain JC280 (Hazara virus strain JC280) (UniProt P27318)
Test: crystal structure; HAZV N at 10 mg/mL, crystals from 15 % PEG 10,000, 100 mM sodium citrate pH 5, 100 mM NaCl, 2 % dioxane; P212121, four monomers in the asymmetric unit, 2.7 Å; RNA free; both purified

For “Hazara virus nucleocapsid protein (HAZV N), strain JC280 (from UniProt P27318 1-485)”, the binding was “binds”.
